Experimental data: PubChem BioAssay AID1259405 (NCATS, 2018)
In all, the deposit lists about 50,000 reagents; shown is a random part of them. About 4,000 of all reagents (8%) count as active. 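Mouse siRNA library applied to hamster cells; one well for each siRNA.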 A number with no mark means an inactive call. The numbers tell different reagents against one gene apart.

- Screen: 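Silenced genes that increase secreted GFP made by CHO cells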 (primary screen)
- Cells: Chinese hamster CHO-K1 ovary cells with stable secreted eGFP expression
- Reagents: single siRNA against mouse genes, 0.8 pmol siRNA per well (2 µl of 400 nM stock)
- Timing: 3 days
- Measured: 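Percent of the per-plate non-targeting control median for intracellular GFP per well by laser scanning cytometry and for cell viability by ATP luminescence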
- Direction: GFP, % of control: higher = more GFP per well, higher productivity; viability (ATP), % of control: higher = more viable cells (more ATP)
- Active means: 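Called active when intracellular GFP, relative to negative control, is at or above 120%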

After knock-down of Ngly1 (GeneID 59007) #1, the record shows GFP, % of control 96; viability (ATP), % of control 94.5. Ngly1 (GeneID 59007) #2 showed GFP, % of control 79; viability (ATP), % of control 61.9. Silencing of Ngly1 (GeneID 59007) #3 came out at: GFP, % of control 114; viability (ATP), % of control 85.1. Uqcrq (GeneID 22272) #1 scored GFP, % of control 75.8; viability (ATP), % of control 53.8. Against Uqcrq (GeneID 22272) #2 the deposit lists GFP, % of control 95.8; viability (ATP), % of control 83.8. After knock-down of Uqcrq (GeneID 22272) #3, the screen gave GFP, % of control 61.8; viability (ATP), % of control 48.

For Ngrn (GeneID 83485) #1, the entry reads GFP, % of control 65.8; viability (ATP), % of control 59.8. After knock-down of Ngrn (GeneID 83485) #2, the record shows GFP, % of control 97.2; viability (ATP), % of control 81.9. With knock-down of Ngrn (GeneID 83485) #3, the record shows GFP, % of control 90.6; viability (ATP), % of control 89.8. Against Plekhh2 (GeneID 213556) #1, the entry reads GFP, % of control 60.8; viability (ATP), % of control 58.3. For Plekhh2 (GeneID 213556) #2 the deposit lists GFP, % of control 54.8; viability (ATP), % of control 50.1. Plekhh2 (GeneID 213556) #3 gave GFP, % of control 70.9; viability (ATP), % of control 79.4.

Against Asb1 (GeneID 65247) #1, the entry reads GFP, % of control 118; viability (ATP), % of control 44.9. Asb1 (GeneID 65247) #2 scored GFP, % of control 69.6; viability (ATP), % of control 79.3. With knock-down of Asb1 (GeneID 65247) #3, the record shows GFP, % of control 129 (active); viability (ATP), % of control 118. Silencing of Herc2 (GeneID 15204) #1 resulted in: GFP, % of control 76.9; viability (ATP), % of control 37. Depletion of Herc2 (GeneID 15204) #2 resulted in: GFP, % of control 128 (active); viability (ATP), % of control 85.1. For Herc2 (GeneID 15204) #3, the entry reads GFP, % of control 66.1; viability (ATP), % of control 83.2.

After knock-down of Defa1 (GeneID 13216) #1 the results were GFP, % of control 84.3; viability (ATP), % of control 100. For Defa1 (GeneID 13216) #2 the deposit lists GFP, % of control 83.4; viability (ATP), % of control 82.5. Defa1 (GeneID 13216) #3 scored GFP, % of control 136 (active); viability (ATP), % of control 50.9. Vps37d (GeneID 194309) #1 gave GFP, % of control 71.2; viability (ATP), % of control 83.6. Silencing of Vps37d (GeneID 194309) #2 came out at: GFP, % of control 99.7; viability (ATP), % of control 93.7. Against Vps37d (GeneID 194309) #3, the values are GFP, % of control 72.6; viability (ATP), % of control 74.6.

With knock-down of Chaf1a (GeneID 27221) #1, the screen gave GFP, % of control 75.3; viability (ATP), % of control 52.8. After knock-down of Chaf1a (GeneID 27221) #2, the record shows GFP, % of control 65.7; viability (ATP), % of control 78.6. With knock-down of Chaf1a (GeneID 27221) #3 the results were GFP, % of control 68.1; viability (ATP), % of control 46.4. Depletion of Tdrd3 (GeneID 219249) #1 resulted in: GFP, % of control 70.4; viability (ATP), % of control 44. Knock-down of Tdrd3 (GeneID 219249) #2 gave: GFP, % of control 139 (active); viability (ATP), % of control 147. For Tdrd3 (GeneID 219249) #3, the entry reads GFP, % of control 120 (active); viability (ATP), % of control 112.

Cav2 (GeneID 12390) #1 scored GFP, % of control 78.4; viability (ATP), % of control 57.4. For Cav2 (GeneID 12390) #2, the values are GFP, % of control 64; viability (ATP), % of control 61.9. After knock-down of Ssr3 (GeneID 67437) #1 the results were GFP, % of control 73.3; viability (ATP), % of control 61.7. After knock-down of Ssr3 (GeneID 67437) #2, the screen gave GFP, % of control 104; viability (ATP), % of control 92.3. Against Ssr3 (GeneID 67437) #3, the entry reads GFP, % of control 39.6; viability (ATP), % of control 45.9. Against Cidea (GeneID 12683) #1, the entry reads GFP, % of control 90.2; viability (ATP), % of control 95.9.

Knock-down of Cidea (GeneID 12683) #2 came out at: GFP, % of control 88.8; viability (ATP), % of control 80.9. With knock-down of Cidea (GeneID 12683) #3, the screen gave GFP, % of control 102; viability (ATP), % of control 144. Serpinb1b (GeneID 282663) #1 gave GFP, % of control 80.2; viability (ATP), % of control 67. With knock-down of Serpinb1b (GeneID 282663) #2, the screen gave GFP, % of control 66.4; viability (ATP), % of control 73.6. Against Serpinb1b (GeneID 282663) #3, the values are GFP, % of control 103; viability (ATP), % of control 111.

Look-ups from above.
Under “viability (ATP), % of control”, Chaf1a (GeneID 27221) #2 is entered as 78.6
Asb1 (GeneID 65247) #2, viability (ATP), % of control = 79.3
Serpinb1b (GeneID 282663) #1, GFP, % of control = 80.2
For “viability (ATP), % of control”, Plekhh2 (GeneID 213556) #2 has 50.1
Tdrd3 (GeneID 219249) #1, viability (ATP), % of control = 44
